Results deposited as PubChem BioAssay AID1224826 (NIAID, 2016)
Aim: 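Regulators of Tlr4 signalling leading to Tnf-alpha expression in macrophages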 (primary screen). Cells: RAW264.7 G9 macrophages from mouse bearing reporters for p65 (GFP) and the Tnf promoter (mCherry). Knock-down reagent: siRNA pool against mouse genes, 100 nM. Time to read-out: 16 h of LPS stimulation, after 2 days of siRNA transfection. Conditions: bacterial lipopolysaccharide (Salmonella minnesota R595), 10 ng/ml. Read-out: 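Nuclear mCherry signal of the Tnf promoter reporter measured by imaging after background removal, scaled to each plate median and turned into robust z-scores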. Scale: Tnf reporter robust z-score: higher = stronger Tnf promoter reporter signal after LPS. Hit rule: 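Called active when robust z-score is at most -1.3, matching the median of the Tlr4 knock-down control, or over 3; control wells and wells with under 50 cells never active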. Meaning of the calls: active = Tnf reporter clearly lowered or raised; inactive = no clear change in Tnf reporter.
Shown is a random part of about 17,000 reagents. About 1,110 of them (6.6%) count as active. 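Active means lowered or raised reporter signal; replicate intensities are raw and not normalised per plate.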 Not all columns of the deposit are shown.

Poli (polymerase (DNA directed), iota) — Tnf reporter robust z-score = -1.36; fewer than 50 cells in well = enough cells in well; outcome = active
2210409E12Rik (RIKEN cDNA 2210409E12 gene) — Tnf reporter robust z-score = -1.16; fewer than 50 cells in well = enough cells in well; outcome = inactive
Tmprss11d (transmembrane protease, serine 11d) — Tnf reporter robust z-score = -0.96; fewer than 50 cells in well = enough cells in well; outcome = inactive
Asic2 (acid-sensing ion channel 2) — Tnf reporter robust z-score = 0.33; fewer than 50 cells in well = enough cells in well; outcome = inactive
Prkacb (protein kinase, cAMP dependent, catalytic, beta) — Tnf reporter robust z-score = 0.53; fewer than 50 cells in well = enough cells in well; outcome = inactive
Wnt7a (WNT family member 7A) — Tnf reporter robust z-score = -0.58; fewer than 50 cells in well = enough cells in well; outcome = inactive
Neil1 (nei endonuclease VIII-like 1 (E. coli)) — Tnf reporter robust z-score = -0.38; fewer than 50 cells in well = enough cells in well; outcome = inactive
Coq6 (coenzyme Q6 monooxygenase) — Tnf reporter robust z-score = 0.02; fewer than 50 cells in well = enough cells in well; outcome = inactive
Ak8 (adenylate kinase 8) — Tnf reporter robust z-score = -0.03; fewer than 50 cells in well = enough cells in well; outcome = inactive
Rap2a (RAS related protein 2a) — fewer than 50 cells in well = fewer than 50 cells per well; well left out of calls; outcome = inactive
Or2w2 (olfactory receptor family 2 subfamily W member 2) — Tnf reporter robust z-score = -0.02; fewer than 50 cells in well = enough cells in well; outcome = inactive
Bpifc (BPI fold containing family C) — Tnf reporter robust z-score = 0.68; fewer than 50 cells in well = enough cells in well; outcome = inactive
